Assay results: patent publication US20160311916A1
Where a chain is given by its changes, count along the chain named. These are yes or no findings as the source states them, for the method shown. Some entries that bind do so weakly or less than the wild type.

B1: antibody 1132/1133 (antibody, V domains shown)
VH: EVQLLESGGGLVQPGGSLRLSCAASGFTFSSYAMSWVRQAPGKGLEWVSGIGSYGGGTYYADSVKGRFTISRDNSKNTLYLQMNSLRAEDTAVYYCARYVNFGMDYWGQGTLVTVSS
VL: DIQMTQSPSSLSASVGDRVTITCRASQSISSYLNWYQQKPGKAPKLLIYAASSLQSGVPSRFSGSGSGTDFTLTISSLQPEDFATYYCQQYGRNPPTFGQGTKLEIK
B2: antibody 1150/1151 (antibody, V domains shown)
VH: B1 VH with S53G, Y54S, G55S, G56S, G57Y, Y59S, V100Y, N101S, F102Y, G103H
VL: B1 VL with R18H, R93S, N94A

Experiments:
[1] = molecular target: cynomolgus CD40 (cynomolgus monkey) (UniProt G7PG38); test: cynomolgus cross-reactivity, summary table (Example 5)
[2] = molecular target: cynomolgus CD40 (cynomolgus monkey) (UniProt G7PG38); test: flow cytometry on HEK cells expressing cynomolgus CD40, compared with empty vector

Row | Binder | binding [1] | binding [2]
1 | B1 | binds | binds
2 | B2 | binds | binds
